# The other results are listed elsewhere or left out.
# B1: OS9 (Arabidopsis thaliana) (protein)
# chain: MRGSHHHHHHGMASMTGGQQMGRDLYDDDDKSRLQIFPAHLVGTFSRNNREPKYKIEFLPEDSPFHPGDNLESMVMLDKHGNRFLCYLPKEEKATSGWTSSQQNISTVMMETQQLVKLKTPDELLQPLSEKCLFRQEGWWSYEFCHQKYVRQLHVEDENKIVQEFFLGTFDPEATAAFNQTVSDASTDASQRYHSHVYTNGTTCDLTGSPREVEVRFVCAETRAMVTSITELSTCKYALTVQCPTLCKHPLFQLEKPVSHTIHCNAIPVEEDATRNKEEQAVDESPKMIADS
# Legend:
# Test in all cases: glycan array binding signal (z-score within array); higher = stronger binding
# Settings in all cases: glycan notation: IUPAC condensed, linker removed
# [1] = molecular target: Neu5Ac(a2-6)Gal(b1-4)GlcNAc(b1-3)Gal(b1-4)GlcNAc(b1-3)GalNAc
# In short: (§1)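 The Consortium for Functional Glycomics database supplied 3228 glycan arrays, of which those lacking an available protein sequence were dropped. The binding signal, a within-array Z-score, was averaged across arrays of the same protein sequence and across linkers. Negative scores can be read as non-binding.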
# [2] = molecular target: Neu5Ac(a2-6)Gal(b1-4)GlcNAc(b1-3)Gal(b1-4)GlcNAc(b1-3)[Neu5Ac(a2-6)Gal(b1-4)GlcNAc(b1-3)Gal(b1-4)GlcNAc(b1-6)]GalNAc
# In short: as §1
# [3] = molecular target: Neu5Ac(a2-6)Gal(b1-4)GlcNAc(b1-3)Gal(b1-4)GlcNAc(b1-6)[Gal(b1-3)]GalNAc
# In short: as §1
# [4] = molecular target: Neu5Ac(a2-6)Gal(b1-4)GlcNAc(b1-3)Gal(b1-4)[Fuc(a1-3)]GlcNAc(b1-3)Gal(b1-4)[Fuc(a1-3)]GlcNAc
# In short: as §1
# [5] = molecular target: Neu5Ac(a2-6)Gal(b1-4)GlcNAc(b1-3)GalNAc
# In short: as §1
# [6] = molecular target: Neu5Ac(a2-6)Gal(b1-4)GlcNAc(b1-3)[Neu5Ac(a2-6)Gal(b1-4)GlcNAc(b1-6)]GalNAc
# In short: as §1
# [7] = molecular target: Neu5Ac(a2-6)Gal(b1-4)GlcNAc(b1-6)GalNAc
# In short: as §1
# [8] = molecular target: Neu5Ac(a2-6)Gal(b1-4)GlcNAc(b1-6)[Gal(b1-3)GlcNAc(b1-3)]Gal(b1-4)Glc
# In short: as §1
# [9] = molecular target: Neu5Ac(a2-6)Gal(b1-4)GlcNAc(b1-6)[Gal(b1-3)]GalNAc
# In short: as §1
# [10] = molecular target: Neu5Ac(a2-6)Gal(b1-4)GlcNAc6S
# In short: as §1
# Neu5Ac(a2-6)GalNAc = molecular target: Neu5Ac(a2-6)GalNAc
# In short: as §1
# [11] = molecular target: Neu5Ac(a2-6)GalNAc(b1-4)GlcNAc
# In short: as §1
# [12] = molecular target: Neu5Ac(a2-6)GalNAc(b1-4)GlcNAc6S
# In short: as §1
# [13] = molecular target: Neu5Ac(a2-6)GlcNAc(b1-4)GlcNAc
# In short: as §1
# [14] = molecular target: Neu5Ac(a2-6)GlcNAc(b1-4)GlcNAc(b1-4)GlcNAc
# In short: as §1
# Neu5Ac(a2-8)Neu5Ac = molecular target: Neu5Ac(a2-8)Neu5Ac
# In short: as §1
# [15] = molecular target: Neu5Ac(a2-8)Neu5Ac(a2-3)Gal(b1-3)GalNAc(b1-4)[Neu5Ac(a2-3)]Gal(b1-4)Glc
# In short: as §1
# [16] = molecular target: Neu5Ac(a2-8)Neu5Ac(a2-3)Gal(b1-3)GalNAc(b1-4)[Neu5Ac(a2-8)Neu5Ac(a2-3)]Gal(b1-4)Glc
# In short: as §1
# [17] = molecular target: Neu5Ac(a2-8)Neu5Ac(a2-3)Gal(b1-4)Glc
# In short: as §1
# [18] = molecular target: Neu5Ac(a2-8)Neu5Ac(a2-3)Gal(b1-4)GlcNAc
# In short: as §1
# [19] = molecular target: Neu5Ac(a2-8)Neu5Ac(a2-3)[Gal(b1-3)GalNAc(b1-4)]Gal(b1-4)Glc
# In short: as §1
# [20] = molecular target: Neu5Ac(a2-8)Neu5Ac(a2-3)[GalNAc(b1-4)]Gal(b1-4)Glc
# In short: as §1
# [21] = molecular target: Neu5Ac(a2-8)Neu5Ac(a2-8)Neu5Ac
# In short: as §1
# [22] = molecular target: Neu5Ac(a2-8)Neu5Ac(a2-8)Neu5Ac(a2-3)Gal(b1-4)Glc
# In short: as §1
# [23] = molecular target: Neu5Ac(a2-8)Neu5Ac(a2-8)Neu5Ac(a2-3)[Gal(b1-3)GalNAc(b1-4)]Gal(b1-4)Glc
# In short: as §1
# [24] = molecular target: Neu5Ac(a2-8)Neu5Ac(a2-8)Neu5Ac(a2-3)[GalNAc(b1-4)]Gal(b1-4)Glc
# In short: as §1
# [25] = molecular target: Neu5Ac(a2-8)Neu5Ac(a2-8)Neu5Ac(a2-8)Neu5Ac(a2-3)[GalNAc(b1-4)]Gal(b1-4)Glc
# In short: as §1
# [26] = molecular target: Neu5Ac(a2-8)Neu5Gc(a2-3)Gal(b1-4)GlcNAc
# In short: as §1
# [27] = molecular target: Neu5Ac(b2-6)Gal(b1-4)GlcNAc
# In short: as §1
# Neu5Ac(b2-6)GalNAc = molecular target: Neu5Ac(b2-6)GalNAc
# In short: as §1
# [28] = molecular target: Neu5Ac9Ac(a2-3)Gal(b1-3)GlcNAc
# In short: as §1
# [29] = molecular target: Neu5Ac9Ac(a2-3)Gal(b1-4)GlcNAc
# In short: as §1
# [30] = molecular target: Neu5Ac9Ac(a2-6)Gal(b1-4)GlcNAc
# In short: as §1
# [31] = molecular target: Neu5Gc(a2-3)Gal(b1-3)GlcNAc
# In short: as §1
# [32] = molecular target: Neu5Gc(a2-3)Gal(b1-3)[Fuc(a1-4)]GlcNAc
# In short: as §1
# Neu5Gc(a2-3)Gal(b1-4)Glc = molecular target: Neu5Gc(a2-3)Gal(b1-4)Glc
# In short: as §1
# [33] = molecular target: Neu5Gc(a2-3)Gal(b1-4)GlcNAc
# In short: as §1
# [34] = molecular target: Neu5Gc(a2-3)Gal(b1-4)GlcNAc(b1-3)Gal(b1-4)GlcNAc(b1-2)Man(a1-3)[Neu5Gc(a2-3)Gal(b1-4)GlcNAc(b1-3)Gal(b1-4)GlcNAc(b1-2)Man(a1-6)]Man(b1-4)GlcNAc(b1-4)GlcNAc
# In short: as §1
# [35] = molecular target: Neu5Gc(a2-3)Gal(b1-4)[Fuc(a1-3)]GlcNAc
# In short: as §1
# [36] = molecular target: Neu5Gc(a2-6)Gal(b1-4)GlcNAc
# In short: as §1
# Neu5Gc(a2-6)GalNAc = molecular target: Neu5Gc(a2-6)GalNAc
# In short: as §1
# [37] = molecular target: Neu5Gc(a2-8)Neu5Ac(a2-3)Gal(b1-4)GlcNAc
# In short: as §1
# [38] = molecular target: Neu5Gc(a2-8)Neu5Gc(a2-3)Gal(b1-4)GlcNAc
# In short: as §1
# [39] = molecular target: Neu5Gc(a2-8)Neu5Gc(a2-3)Gal(b1-4)GlcNAc(b1-3)Gal(b1-4)GlcNAc
# In short: as §1
# [40] = molecular target: Neu5Gc(a2-8)Neu5Gc(a2-6)Gal(b1-4)GlcNAc
# In short: as §1
# [41] = molecular target: Neu5Gc(b2-6)Gal(b1-4)GlcNAc
# In short: as §1
binder,measurement,setting,value
B1,glycan array binding signal (z-score),[1],0.784
same,glycan array binding signal (z-score),[2],1.02
same,glycan array binding signal (z-score),[3],0.065
same,glycan array binding signal (z-score),[4],-0.53
same,glycan array binding signal (z-score),[5],-0.297
same,glycan array binding signal (z-score),[6],-0.234
same,glycan array binding signal (z-score),[7],-0.911
same,glycan array binding signal (z-score),[8],-0.32
same,glycan array binding signal (z-score),[9],-0.789
same,glycan array binding signal (z-score),[10],0.134
same,glycan array binding signal (z-score),Neu5Ac(a2-6)GalNAc,-0.739
same,glycan array binding signal (z-score),[11],0.735
same,glycan array binding signal (z-score),[12],1.14
same,glycan array binding signal (z-score),[13],-0.464
same,glycan array binding signal (z-score),[14],0.614
same,glycan array binding signal (z-score),Neu5Ac(a2-8)Neu5Ac,0.523
same,glycan array binding signal (z-score),[15],0.308
same,glycan array binding signal (z-score),[16],-0.384
same,glycan array binding signal (z-score),[17],-0.375
same,glycan array binding signal (z-score),[18],0.95
same,glycan array binding signal (z-score),[19],1.47
same,glycan array binding signal (z-score),[20],-1.26
same,glycan array binding signal (z-score),[21],1.33
same,glycan array binding signal (z-score),[22],-0.496
same,glycan array binding signal (z-score),[23],-0.949
same,glycan array binding signal (z-score),[24],0.256
same,glycan array binding signal (z-score),[25],-0.26
same,glycan array binding signal (z-score),[26],1.86
same,glycan array binding signal (z-score),[27],-0.082
same,glycan array binding signal (z-score),Neu5Ac(b2-6)GalNAc,-0.811
same,glycan array binding signal (z-score),[28],1.19
same,glycan array binding signal (z-score),[29],-1.12
same,glycan array binding signal (z-score),[30],0.706
same,glycan array binding signal (z-score),[31],-0.246
same,glycan array binding signal (z-score),[32],-1.06
same,glycan array binding signal (z-score),Neu5Gc(a2-3)Gal(b1-4)Glc,-1.01
same,glycan array binding signal (z-score),[33],0.75
same,glycan array binding signal (z-score),[34],-0.725
same,glycan array binding signal (z-score),[35],-0.962
same,glycan array binding signal (z-score),[36],-0.756
same,glycan array binding signal (z-score),Neu5Gc(a2-6)GalNAc,-0.193
same,glycan array binding signal (z-score),[37],-0.74
same,glycan array binding signal (z-score),[38],-0.682
same,glycan array binding signal (z-score),[39],-0.569
same,glycan array binding signal (z-score),[40],0.458
same,glycan array binding signal (z-score),[41],0.402

# Two entries from above, with tabs.
binder	measurement	setting	value
B1	glycan array binding signal (z-score)	[28]	1.19
same	glycan array binding signal (z-score)	[30]	0.706
